The whole screen tested about 340,000 compounds, of which about 170 (0.05%) were called active. The inconclusive results got no clear call from the source; some entries with a clear call stand among them for comparison. The call rests on the fitted dose curve; in most records, active means well fitted inhibition curve with a large enough effect in the signal ratio, with a control signal flat (not every such curve was filed as active); inconclusive means small, poorly fitted or top-dose-only effect, or effect the other way, or a change in a side signal; inactive means flat fitted curve, though single readings scatter; the % refers to the signal ratio. Potencies beside an inconclusive call are fits to weak or partial responses and may not hold up.
Assay: qHTS Assay to Find Inhibitors of Chronic Active B-Cell Receptor Signaling;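 on activity change, negative = inhibition: plate controls were basal doxycycline-induced cells for no effect and cells given 10 µM MG132 for full effect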
Conditions: ABC-DLBCL IkBa-CBG/CBR reporter, luminescence ratio (green luciferase fused to IkBa over red control in TMD8 lymphoma cells), 4 h; activity change, negative = inhibition: at 46.1 µM (top of the series)
Summary of the method: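 TMD8 human ABC-DLBCL cells with doxycycline-inducible IκBα–green luciferase fusion and unfused red luciferase, in 0.5% FBS medium; compounds up to 46 uM, 4 h at 37C. Green/red luminescence ratio, filter-overlap corrected, fitted to concentration-response curves.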
Potency means the concentration at half of the fitted maximal effect.

Q: For `CC[C@]12c3[nH]c4ccc(OC)cc4c3CCN1C(=O)C(CC(=O)NCc1ccc(OC)c(OC)c1)C[C@@H]2C(=O)N1CCN(C(=O)C2CC2)CC1` (stereo partly drawn), which activity change, negative = inhibition is on record?
A: inactive

Q: For `COc1ccc(OCCCCN2CCC(C)CC2)cc1`, which activity change, negative = inhibition is on record?
A: inconclusive: -1.5%

Q: For `O=C(N/N=C/C=C\c1ccccc1[N+](=O)[O-])c1cccnc1`, which activity change, negative = inhibition is on record?
A: inactive

Q: For `COc1ccccc1NC1=C(Cl)C(=O)N(c2ccccc2)C1=O`, which Potency is on record?
A: inconclusive: 18.4 µM [falling, partial curve]

Q: With `CCOc1ccc(N(CC(=O)NN=C2CCN(C)CC2)S(=O)(=O)c2ccc(Br)cc2)cc1` as the compound, how does the activity change, negative = inhibition read?
A: inactive

Q: For `Cc1cc(-c2ccc(C(C)C)c(S(=O)(=O)N3CCOc4ccccc43)c2)on1`, which activity change, negative = inhibition is on record?
A: inactive

Q: Which activity change, negative = inhibition does the source give for `Cc1ccccc1C(=O)NCC(=O)Nc1ccc(C)c(S(=O)(=O)N2CCCCCC2)c1` here?
A: inconclusive: 5.17%

Q: Which activity change, negative = inhibition does the source give for `Cc1ccc(C)c(NC(=O)c2ccc(OC(=O)c3ccco3)cc2)c1` here?
A: inconclusive: -6.98%

Q: For `CC(C)N(C(=O)[C@H]1CC(CC(=O)NCCC2=CCCCC2)C(=O)N2CCc3c([nH]c4ccccc34)[C@]12C)C(C)C` (stereo partly drawn), which activity change, negative = inhibition is on record?
A: inactive

Q: With `Cc1[nH]c2ccccc2c1C(=O)COC(=O)c1c(-c2ccccc2)noc1C` as the compound, how does the activity change, negative = inhibition read?
A: inconclusive: 3.72%

Q: With `Cn1c(SCC(=O)Nc2ccc3c(c2)n(C)c(=O)n3C)nnc1-c1ccncc1` as the compound, how does the activity change, negative = inhibition read?
A: inactive

Q: Which activity change, negative = inhibition does the source give for `N[C@@H](Cc1c[nH]c2ccc(O)cc12)C(=O)O` here?
A: inactive

Q: Which activity change, negative = inhibition does the source give for `CC(=O)Nc1ccc(C(=O)N(C2=NC(C)CS2)c2ccc(Cl)cc2)cc1` (stereo not drawn) here?
A: inconclusive: 2.93%

Q: For `Nc1cn(C2OC(CO)C(O)C2O)c(=O)[nH]c1=O` (stereo not drawn), which activity change, negative = inhibition is on record?
A: inactive

Q: For `CCOc1cccc(OCCCNCCCOC)c1`, which activity change, negative = inhibition is on record?
A: inactive

Q: With `Cc1c(C)c(C)c(C(=O)c2ccc(NC(=O)c3ccccc3C(=O)O)cc2)c(C)c1C` as the compound, how does the activity change, negative = inhibition read?
A: inconclusive: 3.82%

Q: With `O=C(CSc1n[nH]c(-c2cccs2)n1)N1CCCCC1` as the compound, how does the activity change, negative = inhibition read?
A: inconclusive: -19.6%

Q: With `Cc1ccc(OCC(=O)Nc2cccc(O)c2)cc1C` as the compound, how does the Potency read?
A: inconclusive: 25.1 µM [falling, partial curve]

Q: Which activity change, negative = inhibition does the source give for `CCN(CC)S(=O)(=O)c1ccc(C(=O)NCc2ccc3c(c2)cc(C)n3C)cc1` here?
A: inconclusive: 16.7%

Q: With `CCc1ccccc1NC(=O)C1=CC(c2cccs2)=NS(=O)(=O)N1C` as the compound, how does the activity change, negative = inhibition read?
A: inconclusive: -4.66%

Q: Which activity change, negative = inhibition does the source give for `CCc1nc2oc3ccccc3c(=O)c2c(=O)n1-c1ccc(C)cc1` here?
A: inconclusive: 261%

Q: With `Oc1ccccc1/C=N/NC(=S)NC1CC2C=CC1C2` (stereo not drawn) as the compound, how does the Potency read?
A: inconclusive: 12.6 µM [falling, partial curve]

Q: For `Cc1ccc(NC(=O)c2cc(-c3cccs3)nc3ccccc23)nc1`, which activity change, negative = inhibition is on record?
A: inconclusive: -3.69%

Reference: PubChem BioAssay AID493014 (National Center for Advancing Translational Sciences (NCATS), 2011)
